# From the supplement of paper PMC8728848
# The other results are listed elsewhere or left out.
# B1: C7A (Sus scrofa) (peptide)
# chain: KILRGVCKKIMRTFLRRISKKILTGKK
# Assays:
# Assay in all cases: glycan array binding signal (z-score within array); higher = stronger binding
# Settings in all cases: glycan notation: IUPAC condensed, linker removed; mutation: D21K
# [1] = target: Gal(b1-4)GlcNAc(b1-3)Gal(b1-4)GlcNAc(b1-3)Gal(b1-4)GlcNAc(b1-3)Gal(b1-4)GlcNAc(b1-3)Gal(b1-4)GlcNAc(b1-2)Man(a1-3)[Gal(b1-4)GlcNAc(b1-3)Gal(b1-4)GlcNAc(b1-3)Gal(b1-4)GlcNAc(b1-3)Gal(b1-4)GlcNAc(b1-3)Gal(b1-4)GlcNAc(b1-2)Man(a1-6)]Man(b1-4)GlcNAc(b1-4)[Fuc(a1-6)]GlcNAc
# Summary of the method: (§1)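 Arrays were curated from the Consortium for Functional Glycomics database, 3228 in total, and kept only where the protein sequence was available. Binding is expressed as a within-array Z-score. This score was averaged across arrays of the same protein sequence at different concentrations or buffers and across linkers, and negative values can be read as non-binding.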
# [2] = target: Gal(b1-4)GlcNAc(b1-3)Gal(b1-4)GlcNAc(b1-3)Gal(b1-4)GlcNAc(b1-3)Gal(b1-4)GlcNAc(b1-3)Gal(b1-4)GlcNAc(b1-2)[Gal(b1-4)GlcNAc(b1-3)Gal(b1-4)GlcNAc(b1-3)Gal(b1-4)GlcNAc(b1-3)Gal(b1-4)GlcNAc(b1-3)Gal(b1-4)GlcNAc(b1-6)]Man(a1-6)[Gal(b1-4)GlcNAc(b1-3)Gal(b1-4)GlcNAc(b1-3)Gal(b1-4)GlcNAc(b1-3)Gal(b1-4)GlcNAc(b1-3)Gal(b1-4)GlcNAc(b1-2)Man(a1-3)]Man(b1-4)GlcNAc(b1-4)[Fuc(a1-6)]GlcNAc
# Summary of the method: as §1
# [3] = target: Gal(b1-4)GlcNAc(b1-3)Gal(b1-4)GlcNAc(b1-3)Gal(b1-4)GlcNAc(b1-3)Gal(b1-4)GlcNAc(b1-3)Gal(b1-4)GlcNAc(b1-3)Gal(b1-4)GlcNAc(b1-2)Man(a1-3)[Gal(b1-4)GlcNAc(b1-3)Gal(b1-4)GlcNAc(b1-3)Gal(b1-4)GlcNAc(b1-3)Gal(b1-4)GlcNAc(b1-3)Gal(b1-4)GlcNAc(b1-3)Gal(b1-4)GlcNAc(b1-2)Man(a1-6)]Man(b1-4)GlcNAc(b1-4)GlcNAc
# Summary of the method: as §1
# [4] = target: Gal(b1-4)GlcNAc(b1-3)Gal(b1-4)GlcNAc(b1-3)GalNAc
# Summary of the method: as §1
# [5] = target: Gal(b1-4)GlcNAc(b1-3)Gal(b1-4)GlcNAc(b1-3)[Gal(b1-4)GlcNAc(b1-3)Gal(b1-4)GlcNAc(b1-6)]GalNAc
# Summary of the method: as §1
# [6] = target: Gal(b1-4)GlcNAc(b1-3)Gal(b1-4)GlcNAc(b1-6)[Gal(b1-3)]GalNAc
# Summary of the method: as §1
# [7] = target: Gal(b1-4)GlcNAc(b1-3)Gal(b1-4)[Fuc(a1-3)]GlcNAc(b1-3)Gal(b1-4)[Fuc(a1-3)]GlcNAc
# Summary of the method: as §1
# [8] = target: Gal(b1-4)GlcNAc(b1-3)GalNAc
# Summary of the method: as §1
# [9] = target: Gal(b1-4)GlcNAc(b1-3)[Fuc(a1-3)GlcNAc(b1-6)]Gal(b1-4)Glc
# Summary of the method: as §1
# [10] = target: Gal(b1-4)GlcNAc(b1-3)[Gal(b1-4)GlcNAc(b1-6)]Gal(b1-4)GlcNAc
# Summary of the method: as §1
# [11] = target: Gal(b1-4)GlcNAc(b1-3)[GlcNAc(b1-6)]Gal(b1-4)GlcNAc
# Summary of the method: as §1
# [12] = target: Gal(b1-4)GlcNAc(b1-6)Gal(b1-4)GlcNAc
# Summary of the method: as §1
# [13] = target: Gal(b1-4)GlcNAc(b1-6)GalNAc
# Summary of the method: as §1
# [14] = target: Gal(b1-4)GlcNAc(b1-6)[Gal(b1-3)]GalNAc
# Summary of the method: as §1
# [15] = target: Gal(b1-4)GlcNAc(b1-6)[Gal(b1-4)GlcNAc(b1-3)]GalNAc
# Summary of the method: as §1
# Gal(b1-4)GlcNAc6P = target: Gal(b1-4)GlcNAc6P
# Summary of the method: as §1
# Gal(b1-6)Gal = target: Gal(b1-6)Gal
# Summary of the method: as §1
# Gal3S(b1-3)GalNAc = target: Gal3S(b1-3)GalNAc
# Summary of the method: as §1
# Gal3S(b1-3)GlcNAc = target: Gal3S(b1-3)GlcNAc
# Summary of the method: as §1
# [16] = target: Gal3S(b1-3)[Fuc(a1-4)]GlcNAc
# Summary of the method: as §1
# Gal3S(b1-4)Glc = target: Gal3S(b1-4)Glc
# Summary of the method: as §1
# Gal3S(b1-4)Glc6S = target: Gal3S(b1-4)Glc6S
# Summary of the method: as §1
# Gal3S(b1-4)GlcNAc = target: Gal3S(b1-4)GlcNAc
# Summary of the method: as §1
# [17] = target: Gal3S(b1-4)[Fuc(a1-3)]Glc6S
# Summary of the method: as §1
# [18] = target: Gal3S(b1-4)[Fuc(a1-3)]GlcNAc
# Summary of the method: as §1
# [19] = target: Gal3S(b1-4)[Fuc(a1-3)]GlcNAc6S
# Summary of the method: as §1
binder,measurement,setting,value
B1,glycan array binding signal (z-score),[1],0.455
same,glycan array binding signal (z-score),[2],1.52
same,glycan array binding signal (z-score),[3],0.329
same,glycan array binding signal (z-score),[4],2.33
same,glycan array binding signal (z-score),[5],1.72
same,glycan array binding signal (z-score),[6],2.48
same,glycan array binding signal (z-score),[7],-0.696
same,glycan array binding signal (z-score),[8],-0.848
same,glycan array binding signal (z-score),[9],0.528
same,glycan array binding signal (z-score),[10],-0.574
same,glycan array binding signal (z-score),[11],-0.227
same,glycan array binding signal (z-score),[12],0.295
same,glycan array binding signal (z-score),[13],0.647
same,glycan array binding signal (z-score),[14],0.074
same,glycan array binding signal (z-score),[15],-0.398
same,glycan array binding signal (z-score),Gal(b1-4)GlcNAc6P,-0.088
same,glycan array binding signal (z-score),Gal(b1-6)Gal,0.054
same,glycan array binding signal (z-score),Gal3S(b1-3)GalNAc,-0.766
same,glycan array binding signal (z-score),Gal3S(b1-3)GlcNAc,0.405
same,glycan array binding signal (z-score),[16],-0.272
same,glycan array binding signal (z-score),Gal3S(b1-4)Glc,0.34
same,glycan array binding signal (z-score),Gal3S(b1-4)Glc6S,0.213
same,glycan array binding signal (z-score),Gal3S(b1-4)GlcNAc,0.551
same,glycan array binding signal (z-score),[17],0.75
same,glycan array binding signal (z-score),[18],2.08
same,glycan array binding signal (z-score),[19],2.15
